Measurements reported in article doi:10.1101/2024.11.07.622459.
No constants are given. Whether binding was seen depends on the method and setting. In cells and extracts the contact can be indirect. A yes stands for co-enrichment or nearness to the bait. Other partners may have been found.

Amino acid sequences for entries named in this document (tags omitted).
UniProt Q99700: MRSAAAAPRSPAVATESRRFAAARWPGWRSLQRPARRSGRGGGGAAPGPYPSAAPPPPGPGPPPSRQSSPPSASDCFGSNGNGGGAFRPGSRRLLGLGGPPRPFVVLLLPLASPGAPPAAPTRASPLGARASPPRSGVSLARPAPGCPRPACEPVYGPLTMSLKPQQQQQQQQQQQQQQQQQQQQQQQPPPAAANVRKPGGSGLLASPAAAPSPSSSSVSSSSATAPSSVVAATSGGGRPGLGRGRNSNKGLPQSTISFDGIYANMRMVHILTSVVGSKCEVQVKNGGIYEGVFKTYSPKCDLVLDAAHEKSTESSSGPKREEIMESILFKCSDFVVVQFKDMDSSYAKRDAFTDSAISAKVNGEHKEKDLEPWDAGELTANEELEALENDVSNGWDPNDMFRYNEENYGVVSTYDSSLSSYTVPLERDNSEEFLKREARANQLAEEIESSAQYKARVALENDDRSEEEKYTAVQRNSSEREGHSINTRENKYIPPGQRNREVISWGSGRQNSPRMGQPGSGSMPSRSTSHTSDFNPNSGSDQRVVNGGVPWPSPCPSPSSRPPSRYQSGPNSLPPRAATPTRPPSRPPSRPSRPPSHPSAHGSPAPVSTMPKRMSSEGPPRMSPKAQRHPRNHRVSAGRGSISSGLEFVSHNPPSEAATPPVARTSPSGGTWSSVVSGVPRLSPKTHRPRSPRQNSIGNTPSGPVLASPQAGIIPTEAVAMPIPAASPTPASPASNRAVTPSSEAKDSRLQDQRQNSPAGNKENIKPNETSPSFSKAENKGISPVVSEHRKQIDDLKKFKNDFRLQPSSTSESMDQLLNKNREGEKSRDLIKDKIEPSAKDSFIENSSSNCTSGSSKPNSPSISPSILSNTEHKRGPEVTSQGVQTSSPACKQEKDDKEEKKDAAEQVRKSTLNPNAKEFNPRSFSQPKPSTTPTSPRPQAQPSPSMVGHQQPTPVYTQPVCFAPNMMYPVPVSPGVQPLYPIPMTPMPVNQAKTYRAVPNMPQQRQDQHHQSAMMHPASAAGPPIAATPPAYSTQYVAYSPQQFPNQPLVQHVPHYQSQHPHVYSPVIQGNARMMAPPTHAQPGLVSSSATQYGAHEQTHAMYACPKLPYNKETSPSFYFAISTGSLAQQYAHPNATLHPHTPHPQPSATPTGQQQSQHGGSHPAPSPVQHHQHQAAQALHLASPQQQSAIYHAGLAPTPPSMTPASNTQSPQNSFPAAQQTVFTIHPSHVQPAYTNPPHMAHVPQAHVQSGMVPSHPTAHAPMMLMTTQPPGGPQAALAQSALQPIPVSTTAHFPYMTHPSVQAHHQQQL

Target: ATXN2 (ATAXIN2, Spinocerebellar ataxia 2) (human (endogenous in K562)) (UniProt Q99700)
Experiment: affinity purification with mass spectrometry

B1: G3BP2 (protein, UniProt Q9UN86 1-482)
chain: MVMEKPSPLLVGREFVRQYYTLLNKAPEYLHRFYGRNSSYVHGGVDASGKPQEAVYGQNDIHHKVLSLNFSECHTKIRHVDAHATLSDGVVVQVMGLLSNSGQPERKFMQTFVLAPEGSVPNKFYVHNDMFRYEDEVFGDSEPELDEESEDEVEEEQEERQPSPEPVQENANSGYYEAHPVTNGIEEPLEESSHEPEPEPESETKTEELKPQVEEKNLEELEEKSTTPPPAEPVSLPQEPPKAFSWASVTSKNLPPSGTVSSSGIPPHVKAPVSQPRVEAKPEVQSQPPRVREQRPRERPGFPPRGPRPGRGDMEQNDSDNRRIIRYPDSHQLFVGNLPHDIDENELKEFFMSFGNVVELRINTKGVGGKLPNFGFVVFDDSEPVQRILIAKPIMFRGEVRLNVEEKKTRAARERETRGGGDDRRDIRRNDRGPGGPRGIVGGGMMRDRDGRGPPPRGGMAQKLGSGRGTGQMEGRFTGQRR
For B1, the binding was “binds”.

B2: Tia1 (protein, UniProt P31483 1-386)
chain: MEDEMPKTLYVGNLSRDVTEALILQLFSQIGPCKNCKMIMDTAGNDPYCFVEFHEHRHAAAALAAMNGRKIMGKEVKVNWATTPSSQKKDTSSSTVVSTQRSQDHFHVFVGDLSPEITTEDIKAAFAPFGRISDARVVKDMATGKSKGYGFVSFFNKWDAENAIQQMGGQWLGGRQIRTNWATRKPPAPKSTYESNTKQLSYDEVVNQSSPSNCTVYCGGVTSGLTEQLMRQTFSPFGQIMEIRVFPDKGYSFVRFNSHESAAHAIVSVNGTTIEGHVVKCYWGKETLDMINPVQQQNQIGYPQPYGQWGQWYGNAQQIGQYMPNGWQVPAYGMYGQAWNQQGFNQTQSSAPWMGPNYGVQPPQGQNGSMLPNQPSGYRVAGYETQ
B2 was tested, and the binding was “binds”.
